Assay results published in the supplement of paper PMC7125110.
± gives the standard error. Many entries were measured with a wide error.

B1: glmS ribozyme (parent)
chain: AUAAAAGCGCCAGAACUACAGAAAUGUAGUUGACGAGGAGGAGGUUUAUCGAAUUUUCGGCGGAUGCCUCCAAA

Variants of: B1
Assay: self-cleavage kobs at 160 uM GlcN6P; higher = faster cleavage; RNA array
Conditions: with glucosamine-6-phosphate
Method in brief: (§1)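 kcat and KM were obtained from weighted Michaelis–Menten fits across concentrations of kobs values. Those came from one- or two-exponential decay fits to per-tile medians normalised to baseline and to non-cleaving reference variants. The variants were barcoded ribozymes transcribed in situ by E. coli RNA polymerase on sequenced MiSeq chips and tracked through a hybridised Cy3 probe at 37 °C, with 40 μM to 10 mM glucosamine-6-phosphate in HEPES/KCl/Mg(OAc)2 buffer flowed in.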

Variant	self-cleavage kobs at 160 uM GlcN6P [s⁻¹]
C50A A53C U57G C58G	4.93e-05 ± 2.7e-05
A48U U55A U69G	3.66e-05 ± 2.3e-05
C50U C68A	2.51e-05 ± 2e-05
A39U G43A	2.55e-05 ± 1.3e-05
G32U U69C	2.73e-05 ± 1.6e-05
A39U C68G	2.1e-05 ± 1.3e-05
G37C C50A C58A U69A	5.99e-05 ± 3.2e-05
U56G C58A	1.99e-05 ± 1.3e-05
G32A C70A	2.7e-05 ± 1.5e-05
C50A C67U C68A	0.00011 ± 5.9e-05
A48U C67U	1.9e-05 ± 1.1e-05
U57G	< 1e-05
U69G C71A	1.97e-05 ± 1.9e-05
C50U C70U	2.26e-05 ± 1.6e-05
U30G C70G	2.84e-05 ± 1.5e-05
C70A C71A	1.87e-05 ± 1.5e-05
U46A U69G	2.9e-05 ± 1.5e-05
G37U U49A C61G C70G	2.71e-05 ± 2.6e-05
A53C U69G	3.94e-05 ± 3.6e-05
C50A C67U	2.01e-05 ± 1.2e-05
G29A U46C	2.27e-05 ± 2.1e-05

Variant	self-cleavage kobs at 160 uM GlcN6P [s⁻¹]
U69A C71G	2.29e-05 ± 1.6e-05
U45C C71A	4.2e-05 ± 3.5e-05
U30G U65A	4.36e-05 ± 2.2e-05
G38U A39G C50G	5.57e-05 ± 2.9e-05
A42U C70U	1.8e-05 ± 1.2e-05
A39C U46A	1.82e-05 ± 1.8e-05
U55G C67A C68G	6.39e-05 ± 4.6e-05
U31G A39U C71G	1.67e-05 ± 1.1e-05
G51A U69A	2.04e-05 ± 2e-05
A52G C68G	3.1e-05 ± 2.1e-05
G41A U54C	3.01e-05 ± 2.2e-05
C58A C67U C71A	2.91e-05 ± 2.1e-05
G32A A53G U56G	1.96e-05 ± 1.9e-05
A52U C68G	1.65e-05 ± 1.5e-05
C50G G66U	0.000173 ± 9.3e-05
A42G G43A C67U C68U	3.25e-05 ± 2.9e-05
U49G C67U	1.67e-05 ± 1.6e-05
U30G G66U	3.71e-05 ± 2.3e-05
A39U A42U U55G G66U	2.69e-05 ± 1.5e-05
A42U U55C	1.92e-05 ± 1.4e-05

Variants of: B1
Assay: self-cleavage kobs at 10000 uM GlcN6P; higher = faster cleavage; RNA array
Conditions: with glucosamine-6-phosphate
Method in brief: as §1

Variant	self-cleavage kobs at 10000 uM GlcN6P [s⁻¹]
C50A A53C U57G C58G	2.51e-05 ± 1.9e-05
A53C U69G	2.18e-05 ± 1.2e-05
G38U A39G C50G	2.95e-05 ± 2.2e-05
A6C C50G	1.79e-05 ± 1.6e-05

Variants of: B1
Assay: self-cleavage kobs at 2500 uM GlcN6P; higher = faster cleavage; RNA array
Conditions: with glucosamine-6-phosphate
Method in brief: as §1

Variant	self-cleavage kobs at 2500 uM GlcN6P [s⁻¹]
A6U G59C C67G	8.7e-05 ± 4.6e-05
C8U G62A C71U	3.88e-05 ± 3.4e-05
C10U C58G C67A	6.4e-05 ± 3.8e-05
C10U G63C U65G C70A C71A	2.7e-05 ± 2.6e-05
G9U C34G C58G C68U	4.45e-05 ± 3.7e-05
C10U C50U C68G	2.47e-05 ± 2e-05
C11U U46G C50G	4.37e-05 ± 2.3e-05
A6U U31G C61G C70U	3.05e-05 ± 2.6e-05
G7A C16U A39U	5.51e-05 ± 3.2e-05
C50A C67U C68A	0.000109 ± 6.6e-05
A6U U31C U54A	3.32e-05 ± 2.1e-05
U69G C71A	2.09e-05 ± 1.9e-05
C11U G35U C68G C70A	4.38e-05 ± 2.7e-05
C10A A36C C68G	2.62e-05 ± 1.9e-05
C10U A12G C50G	5.51e-05 ± 4.2e-05
C50A C67U	2.08e-05 ± 1e-05
A6G A14U U47A A52C C68G	4.76e-05 ± 3.6e-05
A12C U49G U56C	2.33e-05 ± 1.7e-05
C10U G62A C70U C71G	3.23e-05 ± 2.4e-05
A6U G51C U56A U69G C70A	2.67e-05 ± 2.4e-05
A6U G37A	0.00576 ± 0.0055
A6U C16G U55A	2.1e-05 ± 1.9e-05

Variant	self-cleavage kobs at 2500 uM GlcN6P [s⁻¹]
G38U A39G C50G	3.75e-05 ± 3e-05
C11G C50U U57A G60A C67U	3.71e-05 ± 2.3e-05
C11U G13A U45A	3.48e-05 ± 2e-05
C11G C61U G63A U69A	2.81e-05 ± 2.6e-05
C10A G60A C70A	3.99e-05 ± 2.6e-05
A6U G29U	1.82e-05 ± 1.2e-05
C11A C19A	4.89e-05 ± 2.9e-05
C11U U57A C70U	5.79e-05 ± 5e-05
C10A C11U A36U C70U C71G	0.000106 ± 5.5e-05
C58A C67U C71A	3.91e-05 ± 3.1e-05
A6C A15G U56A	2.51e-05 ± 1.8e-05
A6U A15G G62U U69G	3.71e-05 ± 3.6e-05
A6U A12C U56A	3.64e-05 ± 1.9e-05
A6C U47C U54G	3.11e-05 ± 2.9e-05
A12C A53G A64U	4.05e-05 ± 2.3e-05
A6C C50G	2.65e-05 ± 1.9e-05
A6U U30A U55G	3.1e-05 ± 2e-05
C11G G13U C50G G60U C61G	4.31e-05 ± 2.7e-05
C10U C68U	1.83e-05 ± 1.1e-05
A12C G29A G41U	4.67e-05 ± 3.1e-05
C10U C70G C71G	4.33e-05 ± 2.3e-05
C10A A15G G32U C70G	5.31e-05 ± 2.8e-05

Nothing new here: an excerpt of the list.
Variant	self-cleavage kobs at 2500 uM GlcN6P [s⁻¹]
C11G C61U G63A U69A	2.81e-05 ± 2.6e-05
C10A G60A C70A	3.99e-05 ± 2.6e-05
A6U G29U	1.82e-05 ± 1.2e-05
C11A C19A	4.89e-05 ± 2.9e-05
C11U U57A C70U	5.79e-05 ± 5e-05
C10A C11U A36U C70U C71G	0.000106 ± 5.5e-05
C58A C67U C71A	3.91e-05 ± 3.1e-05
A6C A15G U56A	2.51e-05 ± 1.8e-05
A6U A15G G62U U69G	3.71e-05 ± 3.6e-05
A6U A12C U56A	3.64e-05 ± 1.9e-05
A6C U47C U54G	3.11e-05 ± 2.9e-05
A12C A53G A64U	4.05e-05 ± 2.3e-05
A6C C50G	2.65e-05 ± 1.9e-05
A6U U30A U55G	3.1e-05 ± 2e-05
C11G G13U C50G G60U C61G	4.31e-05 ± 2.7e-05
C10U C68U	1.83e-05 ± 1.1e-05
A12C G29A G41U	4.67e-05 ± 3.1e-05
C10U C70G C71G	4.33e-05 ± 2.3e-05
C10A A15G G32U C70G	5.31e-05 ± 2.8e-05
